Measurements reported in PubChem BioAssay AID1259308 (NCATS, 2017)
The deposit covers about 59,000 reagents; shown is a random part of them. About 1,510 of all reagents (2.6%) count as active. 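Calls use total luciferase alone and ignore viability, so some active siRNAs may act by altering cell number.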 Unmarked entries are inactive. Reagents against one gene are numbered here. Further read-outs or replicates are left out here. No sequences are given here.

Aim: 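Genes whose loss raises luciferase production in HEK293 cells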 (primary screen)
Cell system: human HEK293 embryonic kidney cells stably expressing firefly luciferase (HEK-CMV-Luc2-Hygro)
Reagent: single siRNA against human genes, 0.8 pmol siRNA per well
Time to read-out: 72 h
Measurement: 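Reporter luminescence and viable-cell signal on separate replicate plates, given as percent of non-targeting control and median/MAD z-scores, plus per-cell luciferase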
Direction: total luciferase, z-score: higher = more reporter protein produced
Hit rule: 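An siRNA counts as active if its total luciferase robust z-score exceeds 3; genes with two or more such siRNAs out of three were retested with fresh siRNAs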
Meaning of the calls: active = raised luciferase; inactive = no rise

gene | reagent | total luciferase, z-score
ADAP2 (ArfGAP with dual PH domains 2) | 1 | 0.0708
ADAP2 (ArfGAP with dual PH domains 2) | 2 | -0.646
ADAP2 (ArfGAP with dual PH domains 2) | 3 | -0.794
CETN2 (centrin 2) | 1 | -0.369
CETN2 (centrin 2) | 2 | -0.0879
CETN2 (centrin 2) | 3 | -0.247
WNT7B (Wnt family member 7B) | 1 | 0.979
WNT7B (Wnt family member 7B) | 2 | 1.43
WNT7B (Wnt family member 7B) | 3 | -0.176
TMEM255B (transmembrane protein 255B) | 1 | -0.455
TMEM255B (transmembrane protein 255B) | 2 | 0.463
TMEM255B (transmembrane protein 255B) | 3 | -0.27
CCER2 (coiled-coil glutamate rich protein 2) | 1 | -0.481
CCER2 (coiled-coil glutamate rich protein 2) | 2 | 1.08
CCER2 (coiled-coil glutamate rich protein 2) | 3 | 1.13
KCNK16 (potassium two pore domain channel subfamily K member 16) | 1 | -2.67
KCNK16 (potassium two pore domain channel subfamily K member 16) | 2 | 0.0165
KCNK16 (potassium two pore domain channel subfamily K member 16) | 3 | 0.817
L3MBTL1 (L3MBTL histone methyl-lysine binding protein 1) | 1 | 0.756
L3MBTL1 (L3MBTL histone methyl-lysine binding protein 1) | 2 | -1.39
L3MBTL1 (L3MBTL histone methyl-lysine binding protein 1) | 3 | 0.717
FAAP20 (FA core complex associated protein 20) | 1 | 0.0692
FAAP20 (FA core complex associated protein 20) | 2 | -1.41
FAAP20 (FA core complex associated protein 20) | 3 | -1.1
PPM1M (protein phosphatase, Mg2+/Mn2+ dependent 1M) | 1 | 0.975
PPM1M (protein phosphatase, Mg2+/Mn2+ dependent 1M) | 2 | 0.757
PPM1M (protein phosphatase, Mg2+/Mn2+ dependent 1M) | 3 | -0.543
ADORA1 (adenosine A1 receptor) | 1 | 1.17
ADORA1 (adenosine A1 receptor) | 2 | -0.314
ADORA1 (adenosine A1 receptor) | 3 | 0.645
F9 (coagulation factor IX) | 1 | 1.51
F9 (coagulation factor IX) | 2 | -0.128
F9 (coagulation factor IX) | 3 | 0.382
DSG4 (desmoglein 4) | 1 | -0.211
DSG4 (desmoglein 4) | 2 | -0.231
DSG4 (desmoglein 4) | 3 | -0.943
RPL22P3 (ribosomal protein L22 pseudogene 3) | 1 | 0.191
RPL22P3 (ribosomal protein L22 pseudogene 3) | 2 | 0.273
RPL22P3 (ribosomal protein L22 pseudogene 3) | 3 | 0.434
PLXNA3 (plexin A3) | 1 | 0.24
PLXNA3 (plexin A3) | 2 | -1.28
PLXNA3 (plexin A3) | 3 | -0.435
PLBD2 (phospholipase B domain containing 2) | 1 | 0.279
PLBD2 (phospholipase B domain containing 2) | 2 | -1.41
PLBD2 (phospholipase B domain containing 2) | 3 | -0.186
WWP2 (WW domain containing E3 ubiquitin protein ligase 2) | 1 | 0.222
WWP2 (WW domain containing E3 ubiquitin protein ligase 2) | 2 | -0.76
WWP2 (WW domain containing E3 ubiquitin protein ligase 2) | 3 | 2.52
CD1D (CD1d molecule) | 1 | -0.547
CD1D (CD1d molecule) | 2 | 0.518
CD1D (CD1d molecule) | 3 | -0.626
SHLD1 (shieldin complex subunit 1) | 1 | -1.35
SHLD1 (shieldin complex subunit 1) | 2 | -0.943
SHLD1 (shieldin complex subunit 1) | 3 | 0.931
USB1 (U6 snRNA biogenesis phosphodiesterase 1) | 1 | -1.37
USB1 (U6 snRNA biogenesis phosphodiesterase 1) | 2 | 0.205
USB1 (U6 snRNA biogenesis phosphodiesterase 1) | 3 | -0.697

Entries listed so far whose gene name starts with S or s (3):
gene | reagent | total luciferase, z-score
SHLD1 (shieldin complex subunit 1) | 1 | -1.35
SHLD1 (shieldin complex subunit 1) | 2 | -0.943
SHLD1 (shieldin complex subunit 1) | 3 | 0.931
